Record: PubChem BioAssay AID1053208 (Peter MacCallum Cancer Centre, 2014)

Test: 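Synthetic lethal interactions between gene loss and doxorubicin in osteosarcoma cells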 (primary screen)
System: mouse osteosarcoma cells, early-passage culture from an engineered mouse model of fibroblastic bone tumour
Reagents: siRNA pool against mouse genes, 40 nM
Timing: about 120 h (48 h before drug, then 72 h with drug)
Conditions: doxorubicin 100 nM for 72 h, roughly 30-40% inhibitory dose
Measured: 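Viability read as ATP luminescence after 72 h of 100 nM doxorubicin or none, duplicate wells averaged, scaled to non-targeting siRNA, then expressed as robust z-scores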
Direction: viability z-score with doxorubicin: higher = more viable cells under doxorubicin; viability z-score without drug: higher = more viable cells with knock-down alone
Active means: 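a pool counts as active when its viability z-score with doxorubicin is -2 or below and its z-score without drug lies between -2 and 2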
Shown is an unselected part of about 17,000 reagents tested. Of all reagents, 788 (4.7%) got an active call. 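Calls rest on z-score classes alone; an extra cut-off of viability at most 70% of control was not applied to them.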 Further read-outs or replicates are left out here.

target gene,combined z-score class,viability z-score with doxorubicin,viability z-score without drug,Outcome
Hacd1,no change with or without drug,1.01,0.67,inactive
Slc22a19,no change with or without drug,-0.9,0.17,inactive
Or52n20,no change with or without drug,0,-0.17,inactive
Ifna13,no change with or without drug,-0.22,-0.51,inactive
Cdc37,no change with or without drug,-0.11,1.01,inactive
Or6c1b,no change with or without drug,-0.45,-1.18,inactive
Avpr2,no change with or without drug,-0.22,0.84,inactive
Tmem26,no change with or without drug,-1.46,-0.84,inactive
Txndc9,no change with or without drug,-0.11,-1.35,inactive
Erp27,no change with or without drug,-0.79,1.52,inactive
Cdh2,no change with or without drug,-1.35,-0.17,inactive
Chrna3,no change with or without drug,-0.22,0.34,inactive
Tbx6,no change with or without drug,-1.24,-0.51,inactive
Or10d1c,no change with or without drug,0.56,-0.84,inactive
Isg20l2,no change with or without drug,0.45,1.18,inactive
Egr2,no change with or without drug,0.67,0.34,inactive
Mrgpra8,no change with or without drug,0.45,-0.17,inactive
Or5b108,no change with or without drug,-1.12,-0.51,inactive
Hs3st3a1,no change with or without drug,0.45,0.84,inactive
Abhd15,low cell count with doxorubicin only,-2.25,-1.35,active

Not a retest: 2 of the entries above.
target gene,combined z-score class,viability z-score with doxorubicin,viability z-score without drug,Outcome
Cdc37,no change with or without drug,-0.11,1.01,inactive
Or6c1b,no change with or without drug,-0.45,-1.18,inactive
